Experimental data taken from PubChem BioAssay AID180 (DTP/NCI, 2004).
The list shows only some results of the screen, not a fair sample: it gathers tests that were run many times, whatever their T/C, doses with no T/C, and many T/C values between a quarter and a half above the control. Other doses and runs of a compound stand elsewhere. T/C gives the treated animals as a percentage of the vehicle group. Schedule codes are those of the source, taken here to give the interval after Q, in days (D) or hours (H), and the number of doses after X. Some T/C values are followed by the survivors on the day toxicity was checked, most often the fifth; where none is given, no animal had died by that day. Some entries were tested several times; their values stand side by side, smallest first. Brackets with × say how often a value occurs here. Some entries give survivors of the animals treated and no T/C: the source holds a T/C of zero for them, seemingly a mark for toxic or unscored doses. Survivors were counted at the toxicity check, usually on the fifth day, unless a day is given; later deaths do not show.

System: BDF1 mice, Adenocarcinoma 755 s.c., tumor weight T/C
Experiment: NCI In Vivo Anticancer Drug Screen. Data for tumor model Adenocarcinoma 755 (subcutaneous) in B6D2F1 (BDF1) mice
Settings: T/C endpoint: mean tumor weight, higher T/C = larger tumour; for T/C: evaluated on day 12
Method in brief: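 Transplantable tumor implanted; mice dosed with compound or vehicle; survival or tumor size recorded; ratio of treated to vehicle control reported.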

[1] = dose: 40.0 mg/kg/injection, schedule: Q01DX011 (ip), vehicle: methylcellulose (MC)
[2] = dose: 50.0 mg/kg/injection, schedule: Q01DX011 (ip), vehicle: methylcellulose (MC)

## S=c1nc[nH]c2nc[nH]c12
dose: 0.04 mg/kg/injection, schedule: Q01DX011 (ip), vehicle: methylcellulose (MC)
  T/C: 39, 58, 65, 72 [8 of 10 alive], 76, 76 [9 of 10 alive], 77, 83, 84 [8 of 10 alive], 93 [9 of 10 alive], 119 % of control [9 of 10 alive]
dose: 0.1 mg/kg/injection, schedule: Q01DX011 (ip), vehicle: carboxymethylcellulose (CMC)
  T/C: 45, 63, 95, 103, 123 % of control
dose: 0.15 mg/kg/injection, schedule: Q01DX011 (ip), vehicle: methylcellulose (MC)
  T/C: 30, 35, 40 [8 of 10 alive], 44 [8 of 10 alive], 48, 53 [9 of 10 alive], 58, 66 [8 of 10 alive], 71 [8 of 10 alive], 74 [9 of 10 alive], 81, 82 % of control
dose: 0.2 mg/kg/injection, schedule: Q01DX011 (ip), vehicle: methylcellulose (MC)
  T/C: 11, 52, 55 [8 of 10 alive], 62, 69 [8 of 10 alive], 75 (2×), 94 [9 of 10 alive], 98 % of control [9 of 10 alive]
dose: 0.43 mg/kg/injection, schedule: Q01DX011 (ip), vehicle: carboxymethylcellulose (CMC)
  T/C: 25 [8 of 10 alive], 33, 37, 52, 63, 79, 92 (2×), 99, 100 % of control [8 of 10 alive]
dose: 0.5 mg/kg/injection, schedule: Q01DX011 (ip), vehicle: carboxymethylcellulose (CMC)
  T/C: 16 [9 of 10 alive], 32, 42, 47, 48, 51, 56 [9 of 10 alive], 60, 73, 77 % of control
dose: 0.6 mg/kg/injection, schedule: Q01DX011 (ip), vehicle: methylcellulose (MC)
  T/C: 18 [9 of 10 alive], 27 [8 of 10 alive], 29, 33, 34, 42, 45 [9 of 10 alive], 47, 53, 57, 60, 61 % of control
dose: 0.8 mg/kg/injection, schedule: Q01DX011 (ip), vehicle: methylcellulose (MC)
  T/C: 11 [9 of 10 alive], 17 [8 of 10 alive], 24 [9 of 10 alive], 25, 36, 39 [9 of 10 alive], 55, 57, 77 % of control
dose: 0.87 mg/kg/injection, schedule: Q01DX011 (ip), vehicle: carboxymethylcellulose (CMC)
  T/C: 4 [8 of 10 alive], 6 [9 of 10 alive], 11 [8 of 10 alive], 15 [7 of 10 alive], 19 [9 of 10 alive], 23, 27, 35, 37, 48 % of control
dose: 0.87 mg/kg/injection, schedule: Q01DX011 (oral), vehicle: carboxymethylcellulose (CMC)
  T/C: 48 [7 of 9 alive], 62, 64, 79, 83 (2×), 85 [9 of 10 alive], 95, 111, 138 % of control
dose: 1.0 mg/kg/injection, schedule: Q01DX011 (ip), vehicle: carboxymethylcellulose (CMC)
  T/C: 6, 12, 25, 28 [9 of 10 alive], 30, 33, 34, 55 % of control
dose: 1.7 mg/kg/injection, schedule: Q01DX011 (ip), vehicle: carboxymethylcellulose (CMC)
  T/C: 1 [9 of 10 alive], 6, 7 (3×), 12 (2×), 13, 19, 27 % of control
dose: 1.7 mg/kg/injection, schedule: Q01DX011 (oral), vehicle: carboxymethylcellulose (CMC)
  T/C: 24 [8 of 10 alive], 39, 43, 46 (2×), 65, 73, 80, 88, 400 % of control [9 of 10 alive]
dose: 2.5 mg/kg/injection, schedule: Q01DX011 (ip), vehicle: carboxymethylcellulose (CMC)
  T/C: 1, 2 (2×), 3, 7 % of control
dose: 2.5 mg/kg/injection, schedule: Q01DX011 (ip), vehicle: methylcellulose (MC)
  T/C: 2, 2 [9 of 10 alive], 4 [7 of 10 alive], 5, 5 [9 of 10 alive], 6 [9 of 10 alive] (2×), 7 (3×), 9 [9 of 10 alive], 11 [9 of 10 alive], 12 [9 of 10 alive], 14 [9 of 10 alive], 15 (4×), 18 (2×), 21 % of control [8 of 10 alive]
dose: 3.5 mg/kg/injection, schedule: Q01DX011 (ip), vehicle: carboxymethylcellulose (CMC)
  T/C: 1 (3×), 2, 3 (2×), 3 [9 of 10 alive] (2×), 4 (4×), 5, 5 [9 of 10 alive], 6, 6 [9 of 10 alive], 8 (2×), 8 [8 of 10 alive], 23 % of control
dose: 3.5 mg/kg/injection, schedule: Q01DX011 (oral), vehicle: carboxymethylcellulose (CMC)
  T/C: 3, 12, 13, 14, 15, 17 [8 of 10 alive], 20, 20 [9 of 10 alive], 24, 58 % of control
dose: 5.0 mg/kg/injection, schedule: Q01DX011 (ip), vehicle: carboxymethylcellulose (CMC)
  T/C: 1 (3×), 4, 10 % of control
dose: 7.0 mg/kg/injection, schedule: Q01DX011 (ip), vehicle: carboxymethylcellulose (CMC)
  T/C: 1, 2 (2×), 3 % of control [9 of 10 alive]
dose: 7.0 mg/kg/injection, schedule: Q01DX011 (oral), vehicle: carboxymethylcellulose (CMC)
  T/C: 2, 3, 4, 5, 5 [9 of 10 alive], 6 (2×), 7 (2×), 8 [7 of 9 alive], 9, 11, 12, 15, 19 % of control [8 of 10 alive]
dose: 10.0 mg/kg/injection, schedule: Q01DX011 (ip), vehicle: carboxymethylcellulose (CMC)
  T/C: 1 (2×), 4, 7 % of control
dose: 10.0 mg/kg/injection, schedule: Q01DX011 (ip), vehicle: methylcellulose (MC)
  T/C: 1 [9 of 10 alive], 2, 2 [8 of 10 alive], 3 (4×), 3 [9 of 10 alive] (2×), 4 (2×), 4 [7 of 10 alive], 5, 5 [9 of 10 alive], 6 (2×), 6 [9 of 10 alive], 8, 9, 12, 13 % of control
dose: 14.0 mg/kg/injection, schedule: Q01DX011 (ip), vehicle: carboxymethylcellulose (CMC)
  T/C: 1 [9 of 10 alive], 2 (2×), 2 [9 of 10 alive], 3 % of control
dose: 14.0 mg/kg/injection, schedule: Q01DX011 (oral), vehicle: carboxymethylcellulose (CMC)
  T/C: 1 (2×), 2, 3 % of control
dose: 20.0 mg/kg/injection, schedule: Q01DX011 (ip), vehicle: carboxymethylcellulose (CMC)
  T/C: 1 [7 of 10 alive], 2, 4, 5 % of control
dose: 21.4 mg/kg/injection, schedule: Q01DX011 (ip), vehicle: carboxymethylcellulose (CMC)
  survivor count: 6 of 10
dose: 28.0 mg/kg/injection, schedule: Q01DX011 (ip), vehicle: carboxymethylcellulose (CMC)
  T/C: 1, 2 (3×), 4 % of control
dose: 28.0 mg/kg/injection, schedule: Q01DX011 (oral), vehicle: carboxymethylcellulose (CMC)
  T/C: 1 (2×) and 2 % of control (3×)
dose: 30.0 mg/kg/injection, schedule: Q01DX011 (ip), vehicle: carboxymethylcellulose (CMC)
  survivor count: 0 of 10
[1]
  T/C: 1 [7 of 10 alive], 1 [9 of 10 alive], 2 [7 of 10 alive] (2×), 2 [8 of 10 alive], 2 [9 of 10 alive], 3 [7 of 10 alive] (2×), 3 [9 of 10 alive] (2×), 4 [7 of 10 alive], 4 [9 of 10 alive] (2×), 5 [8 of 10 alive] (2×), 6 % of control [8 of 10 alive] (2×)
  survivor count: 5 of 10 and 6 of 10
[2]
  T/C: 2 [9 of 10 alive], 3 [7 of 10 alive], 4 [7 of 10 alive], 5 % of control [7 of 10 alive]
  survivor count: 2 of 10, 3 of 10, 4 of 10, 5 of 10, 6 of 10
dose: 56.0 mg/kg/injection, schedule: Q01DX011 (oral), vehicle: carboxymethylcellulose (CMC)
  T/C: 1, 2 [8 of 10 alive], 3 % of control [9 of 10 alive] (2×)
dose: 120.0 mg/kg/injection, schedule: Q01DX011 (ip), vehicle: alkali diluted with saline
  survivor count: 2 of 10
dose: 120.0 mg/kg/injection, schedule: Q01DX011 (oral), vehicle: alkali diluted with saline
  survivor count: 6 of 10
dose: 250.0 mg/kg/injection, schedule: Q01DX011 (ip), vehicle: saline
  survivor count: 2 of 10
dose: 320.0 mg/kg/injection, schedule: Q01DX001 (ip), vehicle: alkali diluted with saline
  survivor count: 2 of 10
dose: 320.0 mg/kg/injection, schedule: Q03DX004 (ip), vehicle: alkali diluted with saline
  survivor count: 3 of 10 and 6 of 10
dose: 320.0 mg/kg/injection, schedule: Q07DX002 (ip), vehicle: alkali diluted with saline
  survivor count: 6 of 10
dose: 480.0 mg/kg/injection, schedule: Q01DX001 (ip), vehicle: alkali diluted with saline
  survivor count: 2 of 10
dose: 640.0 mg/kg/injection, schedule: Q03DX004 (oral), vehicle: alkali diluted with saline
  survivor count: 5 of 10
dose: 960.0 mg/kg/injection, schedule: Q01DX001 (oral), vehicle: alkali diluted with saline
  survivor count: 1 of 10
dose: 960.0 mg/kg/injection, schedule: Q07DX002 (oral), vehicle: alkali diluted with saline
  survivor count: 3 of 10
dose: 1000.0 mg/kg/injection, schedule: Q01DX011 (ip), vehicle: saline
  survivor count: 0 of 10
